Data published in article doi:10.1101/262154.
These are yes or no findings as the source states them, for the method shown. Some entries that bind do so weakly or less than the wild type.

Protein sequences, listed by entry. Tags and fused reporters are not part of them.
UniProt Q9VDD3: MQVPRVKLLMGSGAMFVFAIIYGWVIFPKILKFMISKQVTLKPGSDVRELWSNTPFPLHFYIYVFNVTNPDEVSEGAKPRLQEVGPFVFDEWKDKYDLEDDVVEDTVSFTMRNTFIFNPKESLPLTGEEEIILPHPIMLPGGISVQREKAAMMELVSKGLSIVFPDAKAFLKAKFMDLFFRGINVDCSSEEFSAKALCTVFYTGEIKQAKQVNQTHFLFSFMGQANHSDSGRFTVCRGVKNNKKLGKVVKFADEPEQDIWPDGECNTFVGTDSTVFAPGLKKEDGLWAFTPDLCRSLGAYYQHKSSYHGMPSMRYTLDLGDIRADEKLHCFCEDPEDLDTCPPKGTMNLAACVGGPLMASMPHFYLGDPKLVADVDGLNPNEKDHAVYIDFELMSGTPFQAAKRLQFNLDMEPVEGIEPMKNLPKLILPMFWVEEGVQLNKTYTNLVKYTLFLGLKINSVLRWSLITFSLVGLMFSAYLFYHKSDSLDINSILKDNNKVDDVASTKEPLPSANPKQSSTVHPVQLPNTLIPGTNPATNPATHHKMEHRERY

How the values were obtained:
[1] = biological target: T1, Drosophila melanogaster odorant receptor 67d (DmelOR67d) (D. melanogaster) (UniProt Q9VT92); test: two-hybrid
T1 sequence: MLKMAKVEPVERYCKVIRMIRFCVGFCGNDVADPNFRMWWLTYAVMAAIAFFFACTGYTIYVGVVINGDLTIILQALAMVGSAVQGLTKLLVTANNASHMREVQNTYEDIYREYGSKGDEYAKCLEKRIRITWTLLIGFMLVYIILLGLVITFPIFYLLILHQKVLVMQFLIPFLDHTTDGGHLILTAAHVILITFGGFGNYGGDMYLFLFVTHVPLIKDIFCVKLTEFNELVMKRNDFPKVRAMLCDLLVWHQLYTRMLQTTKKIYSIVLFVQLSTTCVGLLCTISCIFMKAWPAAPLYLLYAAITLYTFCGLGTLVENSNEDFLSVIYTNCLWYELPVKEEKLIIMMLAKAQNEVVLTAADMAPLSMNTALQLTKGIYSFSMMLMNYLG

[2] = biological target: T2, Drosophila melanogaster odorant receptor 22a (DmelOR22a) (D. melanogaster) (UniProt P81909); test: two-hybrid
T2 sequence: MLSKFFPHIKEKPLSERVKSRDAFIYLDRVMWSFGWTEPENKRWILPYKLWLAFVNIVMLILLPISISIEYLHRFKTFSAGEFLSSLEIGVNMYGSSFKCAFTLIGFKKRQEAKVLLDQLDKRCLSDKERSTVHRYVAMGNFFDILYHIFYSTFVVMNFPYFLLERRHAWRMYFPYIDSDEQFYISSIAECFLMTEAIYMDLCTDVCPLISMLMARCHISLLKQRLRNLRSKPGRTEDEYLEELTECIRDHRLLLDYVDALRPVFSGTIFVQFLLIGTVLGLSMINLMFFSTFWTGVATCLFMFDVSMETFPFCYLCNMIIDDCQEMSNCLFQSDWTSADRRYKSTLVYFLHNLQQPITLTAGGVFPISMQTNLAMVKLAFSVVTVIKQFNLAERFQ

With “Drosophila melanogaster sensory neuron membrane protein 1 (DmelSNMP1) (from UniProt Q9VDD3 1-551)” the binding [1] was “binds weakly” and the binding [2] was “binds weakly”.
